From the supplement of paper PMC8728848
This is one part of the list.

Tests used:
Test in all cases: glycan array binding signal (z-score within array); higher = stronger binding
Conditions in all cases: glycan notation: IUPAC condensed, linker removed
[1] = molecular target: Neu5Gc(a2-8)Neu5Gc(a2-3)Gal(b1-4)GlcNAc
Outline: (§1)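 The binding signal is a Z-score computed within each array. Data were drawn from 3228 arrays in the Consortium for Functional Glycomics database, restricted to those with a known protein sequence. Scores were averaged over arrays of the same protein sequence at different concentrations or buffers, and over linkers, and negative values can be taken as non-binding.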

[2] = molecular target: Neu5Gc(a2-8)Neu5Gc(a2-3)Gal(b1-4)GlcNAc(b1-3)Gal(b1-4)GlcNAc
Outline: as §1

[3] = molecular target: Neu5Gc(a2-8)Neu5Gc(a2-6)Gal(b1-4)GlcNAc
Outline: as §1

[4] = molecular target: Neu5Gc(b2-6)Gal(b1-4)GlcNAc
Outline: as §1

B1: Drgal1 (Danio rerio) (protein)
chain: MAGVLIQNMSFKVGQTLTITGVPKPDSTNFAINIGHSPEDIALHMNPRFDAHGDQCTIVCNSFQSGSWCEEHRDDNFPFIQDKEFQIKITFTNEEFLVTLPDGSEIHFPNRQGSEKYKYMYFEGEVRIQGVEIK
- glycan array binding signal (z-score) [1]: -0.702
- glycan array binding signal (z-score) [2]: -0.663
- glycan array binding signal (z-score) [3]: -0.686
- glycan array binding signal (z-score) [4]: -0.465
